Experimental data from US20220127374A1.
No constants are given. Whether binding was seen depends on the method and setting. Some results given as binding are weak or reduced against the parent protein; the word gives no strength.

T1: human endothelial protein C receptor (hEPCR) (human) (UniProt Q9UNN8)
T1 sequence: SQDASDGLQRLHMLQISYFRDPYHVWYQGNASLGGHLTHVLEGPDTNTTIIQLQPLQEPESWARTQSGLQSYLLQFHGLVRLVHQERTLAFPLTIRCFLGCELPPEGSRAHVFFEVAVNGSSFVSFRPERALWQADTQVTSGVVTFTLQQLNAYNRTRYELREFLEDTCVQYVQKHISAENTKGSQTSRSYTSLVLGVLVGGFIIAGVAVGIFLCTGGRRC

B1: anti-hEPCR clone H589.9 (antibody, V domains shown)
VH: EVQLLESGGGLVQPGGSLRLSCAASGFTFSSYAMSWVRQAPGKGLEWVSGSSGSGGSAFYADFVKGRFTISRDISKNTLFLQMNSLRAEDTAVYYCAKEGTISMAFDIWGQGTTVTVSS
VL: AIQMTQSPSSLSASVGDRVTITCRASQGIRNDLGWYQQKPGKAPKLLICAASSLQSGVPSRFSGRGSGTDFTLTISSLQPEDFATYYCLQDYNYPRTFGQGTKVEIK
B2: anti-hEPCR clone H754.6 (antibody, V domains shown)
VH: QVQLVESGGGLVTPGGSLRLSCAASGFTFSDYYMTWIRQAPGKGLEWVSYISNSGYTIYYAESVKGRFTISRDNAKSSLYLQMNSLRAEDTAVYYCARDEVSFYYGLDVWGQGTTVTVSS
VL: DIQMTQSPSSLSASAGDRVTITCRASQGIRDDLGWYQQKPGQAPKRLIYAASSLQSGVPSRFSGSGSGTEFTLTISSLQPEDFATYYCLQHNSYPYTFGQGTKLEIK
B3: anti-hEPCR clone H61.3 (antibody, V domains shown)
VH: QVQLQQWGAGLLKPSETLSLTCAVYGGSFSGYYWSWIRQPPGKGLEWIGEINHSGSTNYNPSLKSRVTISVDTSKNQFSLKLSSVTAADTAVYYCARRQLIASSYAFDIWGQGTMVTVSS
VL: EIVMTQSPATLSLSPGERATLSCRASQSVTTRYLSWYQQKPGQAPRLLIYGASTRATGIPARFTGSGSGTDFTLTISSLQPEDFAVYYCQQDYNLFTFGPGTKVDIK
B4: anti-hEPCR clone H599.5 (antibody, V domains shown)
VH: QVQLQESGPGLVQPSETLSLTCTVSGGSISSYYWSWIRQPPGKGLEWIGYIYYSGSTNYNPSLKSRVTISVDTSKNQFSLKLSSVTAADTAVYYCARDQVNGWYRTGFDYWGQGTLVTVSS
VL: EIVMTQSPATLSLSPGERATLSCRASQSVSSGYLSWYQQKPGQAPRLLIYGASTRATGIPARFSGSGSGTDFTLTISSLQPEDFAAYYCQQDYNLPYTFGRGSKLEIK

These binders were tested against T1, human endothelial protein C receptor (hEPCR) (human) (assay: ELISA on plate-coated recombinant hEPCR (0.5 ug/mL), antibody at 1 ug/mL, anti-mouse IgG-HRP, absorbance at 450 nm).

binding	Binder
binds	B1
binds	B2
binds	B3
binds	B4

These binders were tested against T1, human endothelial protein C receptor (hEPCR) (human) (assay: flow cytometry, screening of hybridomas for anti-hEPCR IgG (DU145 cells in the validation protocol)).

binding	Binder
binds	B1
binds	B2
binds	B3
binds	B4

What follows are binders tested against T1, human endothelial protein C receptor (hEPCR) (human) (assay: Western blot of DU145 cell lysate (30 ug per lane, reduced and boiled), primary antibody at 1 ug/mL, anti-mouse IgG-HRP).

binding	Binder
binds	B1
binds	B2
binds	B3
binds	B4
